# This is one part of the list.
# Key:
# Assay in all cases: glycan array binding signal (z-score within array); higher = stronger binding
# Conditions in all cases: glycan notation: IUPAC condensed, linker removed
# [1] = target: Fuc(a1-2)Gal6S(b1-3)GlcNAc
# Summary of the method: (§1)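 Glycan array data came from 3228 arrays in the Consortium for Functional Glycomics database, and only arrays with an available protein sequence were kept. Glycan names were put into IUPAC-condensed notation, and columns mapping to the same glycan were averaged. The binding signal is a within-array Z-score, averaged across arrays of one protein sequence run at different concentrations or buffers and across linkers. A negative Z-score can be read as non-binding.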
# [2] = target: Fuc(a1-2)Gal6S(b1-3)GlcNAc6S
# Summary of the method: as §1
# Fuc(a1-2)Gal6S(b1-4)Glc = target: Fuc(a1-2)Gal6S(b1-4)Glc
# Summary of the method: as §1
# [3] = target: Fuc(a1-2)Gal6S(b1-4)Glc6S
# Summary of the method: as §1
# Fuc(a1-2)[Gal(a1-3)]Gal = target: Fuc(a1-2)[Gal(a1-3)]Gal
# Summary of the method: as §1
# [4] = target: Fuc(a1-2)[Gal(a1-3)]Gal(b1-3)GalNAc
# Summary of the method: as §1
# [5] = target: Fuc(a1-2)[Gal(a1-3)]Gal(b1-3)GalNAc(b1-3)Gal(a1-4)Gal(b1-4)Glc
# Summary of the method: as §1
# [6] = target: Fuc(a1-2)[Gal(a1-3)]Gal(b1-3)GlcNAc
# Summary of the method: as §1
# [7] = target: Fuc(a1-2)[Gal(a1-3)]Gal(b1-3)GlcNAc(b1-2)Man(a1-3)[Fuc(a1-2)[Gal(a1-3)]Gal(b1-3)GlcNAc(b1-2)Man(a1-6)]Man(b1-4)GlcNAc(b1-4)GlcNAc
# Summary of the method: as §1
# [8] = target: Fuc(a1-2)[Gal(a1-3)]Gal(b1-3)GlcNAc(b1-2)Man(a1-3)[Fuc(a1-2)[Gal(a1-3)]Gal(b1-3)GlcNAc(b1-2)Man(a1-6)]Man(b1-4)GlcNAc(b1-4)[Fuc(a1-6)]GlcNAc
# Summary of the method: as §1
# [9] = target: Fuc(a1-2)[Gal(a1-3)]Gal(b1-3)GlcNAc(b1-3)GalNAc
# Summary of the method: as §1
# [10] = target: Fuc(a1-2)[Gal(a1-3)]Gal(b1-3)GlcNAc(b1-6)GalNAc
# Summary of the method: as §1
# [11] = target: Fuc(a1-2)[Gal(a1-3)]Gal(b1-4)Glc
# Summary of the method: as §1
# [12] = target: Fuc(a1-2)[Gal(a1-3)]Gal(b1-4)GlcNAc
# Summary of the method: as §1
# [13] = target: Fuc(a1-2)[Gal(a1-3)]Gal(b1-4)GlcNAc(b1-2)Man
# Summary of the method: as §1
# [14] = target: Fuc(a1-2)[Gal(a1-3)]Gal(b1-4)GlcNAc(b1-2)Man(a1-3)[Fuc(a1-2)[Gal(a1-3)]Gal(b1-4)GlcNAc(b1-2)Man(a1-6)]Man(b1-4)GlcNAc(b1-4)GlcNAc
# Summary of the method: as §1
# [15] = target: Fuc(a1-2)[Gal(a1-3)]Gal(b1-4)GlcNAc(b1-2)Man(a1-3)[Fuc(a1-2)[Gal(a1-3)]Gal(b1-4)GlcNAc(b1-2)Man(a1-6)]Man(b1-4)GlcNAc(b1-4)[Fuc(a1-6)]GlcNAc
# Summary of the method: as §1
# [16] = target: Fuc(a1-2)[Gal(a1-3)]Gal(b1-4)GlcNAc(b1-3)GalNAc
# Summary of the method: as §1
# [17] = target: Fuc(a1-2)[Gal(a1-3)]Gal(b1-4)GlcNAc(b1-3)[Fuc(a1-2)[Gal(a1-3)]Gal(b1-4)GlcNAc(b1-6)]GalNAc
# Summary of the method: as §1
# [18] = target: Fuc(a1-2)[Gal(a1-3)]Gal(b1-4)GlcNAc(b1-6)GalNAc
# Summary of the method: as §1
# [19] = target: Fuc(a1-2)[Gal(a1-3)]Gal(b1-4)[Fuc(a1-3)]Glc
# Summary of the method: as §1
# [20] = target: Fuc(a1-2)[Gal(a1-3)]Gal(b1-4)[Fuc(a1-3)]GlcNAc
# Summary of the method: as §1
# [21] = target: Fuc(a1-2)[Gal(a1-3)]Gal(b1-4)[Fuc(a1-3)]GlcNAc(b1-3)GalNAc
# Summary of the method: as §1
# [22] = target: Fuc(a1-2)[Gal(a1-4)]Gal(b1-4)GlcNAc
# Summary of the method: as §1
# [23] = target: Fuc(a1-2)[GalNAc(a1-3)]Gal
# Summary of the method: as §1
# [24] = target: Fuc(a1-2)[GalNAc(a1-3)]Gal(b1-3)GalNAc(a1-3)[Fuc(a1-2)]Gal(b1-4)GlcNAc
# Summary of the method: as §1
# [25] = target: Fuc(a1-2)[GalNAc(a1-3)]Gal(b1-3)GalNAc(b1-3)Gal(a1-4)Gal(b1-4)Glc
# Summary of the method: as §1
# [26] = target: Fuc(a1-2)[GalNAc(a1-3)]Gal(b1-3)GlcNAc
# Summary of the method: as §1
# [27] = target: Fuc(a1-2)[GalNAc(a1-3)]Gal(b1-3)GlcNAc(b1-2)Man(a1-3)[Fuc(a1-2)[GalNAc(a1-3)]Gal(b1-3)GlcNAc(b1-2)Man(a1-6)]Man(b1-4)GlcNAc(b1-4)GlcNAc
# Summary of the method: as §1
# [28] = target: Fuc(a1-2)[GalNAc(a1-3)]Gal(b1-3)GlcNAc(b1-2)Man(a1-3)[Fuc(a1-2)[GalNAc(a1-3)]Gal(b1-3)GlcNAc(b1-2)Man(a1-6)]Man(b1-4)GlcNAc(b1-4)[Fuc(a1-6)]GlcNAc
# Summary of the method: as §1
# [29] = target: Fuc(a1-2)[GalNAc(a1-3)]Gal(b1-3)GlcNAc(b1-3)GalNAc
# Summary of the method: as §1
# [30] = target: Fuc(a1-2)[GalNAc(a1-3)]Gal(b1-3)GlcNAc(b1-6)GalNAc
# Summary of the method: as §1
# [31] = target: Fuc(a1-2)[GalNAc(a1-3)]Gal(b1-4)Glc
# Summary of the method: as §1
# [32] = target: Fuc(a1-2)[GalNAc(a1-3)]Gal(b1-4)GlcNAc
# Summary of the method: as §1
# [33] = target: Fuc(a1-2)[GalNAc(a1-3)]Gal(b1-4)GlcNAc(b1-2)Man
# Summary of the method: as §1
# [34] = target: Fuc(a1-2)[GalNAc(a1-3)]Gal(b1-4)GlcNAc(b1-2)Man(a1-3)[Fuc(a1-2)[GalNAc(a1-3)]Gal(b1-4)GlcNAc(b1-2)Man(a1-6)]Man(b1-4)GlcNAc(b1-4)GlcNAc
# Summary of the method: as §1
# [35] = target: Fuc(a1-2)[GalNAc(a1-3)]Gal(b1-4)GlcNAc(b1-2)Man(a1-3)[Fuc(a1-2)[GalNAc(a1-3)]Gal(b1-4)GlcNAc(b1-2)Man(a1-6)]Man(b1-4)GlcNAc(b1-4)[Fuc(a1-6)]GlcNAc
# Summary of the method: as §1
# [36] = target: Fuc(a1-2)[GalNAc(a1-3)]Gal(b1-4)GlcNAc(b1-3)Gal(b1-4)GlcNAc
# Summary of the method: as §1
# [37] = target: Fuc(a1-2)[GalNAc(a1-3)]Gal(b1-4)GlcNAc(b1-3)Gal(b1-4)GlcNAc(b1-3)Gal(b1-4)GlcNAc
# Summary of the method: as §1
# [38] = target: Fuc(a1-2)[GalNAc(a1-3)]Gal(b1-4)GlcNAc(b1-3)GalNAc
# Summary of the method: as §1
# [39] = target: Fuc(a1-2)[GalNAc(a1-3)]Gal(b1-4)GlcNAc(b1-3)[Fuc(a1-2)[GalNAc(a1-3)]Gal(b1-4)GlcNAc(b1-6)]GalNAc
# Summary of the method: as §1
# [40] = target: Fuc(a1-2)[GalNAc(a1-3)]Gal(b1-4)GlcNAc(b1-6)GalNAc
# Summary of the method: as §1
# [41] = target: Fuc(a1-2)[GalNAc(a1-3)]Gal(b1-4)[Fuc(a1-3)]GlcNAc
# Summary of the method: as §1
# [42] = target: Fuc(a1-2)[GalNAc(a1-3)]Gal(b1-4)[Fuc(a1-3)]GlcNAc(b1-3)GalNAc
# Summary of the method: as §1
# [43] = target: Fuc(a1-2)[GalNAc(a1-4)]Gal(b1-4)GlcNAc
# Summary of the method: as §1
binder,measurement,setting,value
"EfCBM33A (Enterococcus faecalis), Q838S1 (protein) MKKSLLTIVLAFSFVLGGAALAPTVSEAHGYVASPGSRAFFGSSAGGNLNTNVGRAQWEPQSIEAPKNTFITGKLASAGVSGFEPLDEQTATRWHKTNITTGPLDITWNLTAQHRTASWDYYITKNGWNPNQPLDIKNFDKIASIDGKQEVPNKVVKQTINIPTDRKGYHVIYAVWGIGDTVNAFYQAIDVNIQ",glycan array binding signal (z-score),[1],-0.522
same,glycan array binding signal (z-score),[2],1.01
same,glycan array binding signal (z-score),Fuc(a1-2)Gal6S(b1-4)Glc,-0.329
same,glycan array binding signal (z-score),[3],0.347
same,glycan array binding signal (z-score),Fuc(a1-2)[Gal(a1-3)]Gal,0.59
same,glycan array binding signal (z-score),[4],0.401
same,glycan array binding signal (z-score),[5],-0.242
same,glycan array binding signal (z-score),[6],-0.298
same,glycan array binding signal (z-score),[7],-0.46
same,glycan array binding signal (z-score),[8],0.379
same,glycan array binding signal (z-score),[9],-0.33
same,glycan array binding signal (z-score),[10],-0.352
same,glycan array binding signal (z-score),[11],0.717
same,glycan array binding signal (z-score),[12],-0.311
same,glycan array binding signal (z-score),[13],-0.036
same,glycan array binding signal (z-score),[14],-0.338
same,glycan array binding signal (z-score),[15],0.533
same,glycan array binding signal (z-score),[16],-0.661
same,glycan array binding signal (z-score),[17],1.3
same,glycan array binding signal (z-score),[18],-0.215
same,glycan array binding signal (z-score),[19],-1.02
same,glycan array binding signal (z-score),[20],-0.221
same,glycan array binding signal (z-score),[21],0.1
same,glycan array binding signal (z-score),[22],0.016
same,glycan array binding signal (z-score),[23],0.534
same,glycan array binding signal (z-score),[24],-1.24
same,glycan array binding signal (z-score),[25],-0.121
same,glycan array binding signal (z-score),[26],-0.157
same,glycan array binding signal (z-score),[27],0.694
same,glycan array binding signal (z-score),[28],-0.255
same,glycan array binding signal (z-score),[29],0.359
same,glycan array binding signal (z-score),[30],-0.346
same,glycan array binding signal (z-score),[31],1.38
same,glycan array binding signal (z-score),[32],-0.111
same,glycan array binding signal (z-score),[33],-0.818
same,glycan array binding signal (z-score),[34],0.341
same,glycan array binding signal (z-score),[35],-0.321
same,glycan array binding signal (z-score),[36],0.048
same,glycan array binding signal (z-score),[37],-0.566
same,glycan array binding signal (z-score),[38],-0.27
same,glycan array binding signal (z-score),[39],0.336
same,glycan array binding signal (z-score),[40],-0.679
same,glycan array binding signal (z-score),[41],-1.09
same,glycan array binding signal (z-score),[42],0.257
same,glycan array binding signal (z-score),[43],0.039

# 3 records drawn at random from those above, as already listed:
binder,measurement,setting,value
"EfCBM33A (Enterococcus faecalis), Q838S1 (protein) MKKSLLTIVLAFSFVLGGAALAPTVSEAHGYVASPGSRAFFGSSAGGNLNTNVGRAQWEPQSIEAPKNTFITGKLASAGVSGFEPLDEQTATRWHKTNITTGPLDITWNLTAQHRTASWDYYITKNGWNPNQPLDIKNFDKIASIDGKQEVPNKVVKQTINIPTDRKGYHVIYAVWGIGDTVNAFYQAIDVNIQ",glycan array binding signal (z-score),[35],-0.321
same,glycan array binding signal (z-score),[34],0.341
same,glycan array binding signal (z-score),[17],1.3
